The experiment is described as follows: qHTS Assay for Lipid Storage Modulators in Drosophila S3 Cells.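 On cell number change: cells counted by Cell Tracker Red CMTPX staining in the red channel.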 The settings on record: BODIPY lipid droplet fluorescence, 18-24 h; for cell number change: measured here: cell count max response, cells fed with added oleic acid. The method in brief: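 Laser-scanning cytometry quantifies lipid droplet accumulation (500–530 nm total intensity; droplet/cell object ratio) in oleic acid-fed (400 uM added) Drosophila S3 cells treated with a concentration series. 20 uM Triacsin C defined 100% inhibition.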

Where [1] appears, read: measured here: cell number channel AC50, cells fed with added oleic acid.
[2] abbreviates: measured here: lipid fluorescence (Fed channel) AC50, cells fed with added oleic acid.

Experimental findings from PubChem BioAssay AID2685 (National Center for Advancing Translational Sciences (NCATS), 2010) are described below.

Each structure is given as a SMILES string. The list shows a part of the results. Shown are side measurements of this screen, not its main read-out; they come without a call. The list favours compounds with an active or inconclusive main result. The note in brackets gives the kind of curve behind each potency; many fits are weak.

Turning to `COc1ccc(CC(=O)OCC(=O)NCc2ccco2)cc1OC`, the cell number change was found to be 10%.
Regarding `O=C(N/N=C/c1ccc2c(c1)OCO2)C(=O)Nc1ccc2ccccc2c1`, the cell number change is -37.5%. The AC50 under setting [1] was 8.2 µM [falling, partial curve, poor fit]. Under setting [2], the AC50 was 11.6 µM [falling, partial curve].
Consider `O=C(NCc1cccs1)c1cc2c(s1)CCCC2`, for which the cell number change is 275%. In addition, the AC50 under setting [1] was 29.1 µM [rising, single point]. Besides, the AC50 under setting [2] is 4.61 µM [rising, partial curve].
Take `CCOc1cc(C(=O)NC)cc(OCC)c1OCC`: the cell number change amounted to 37.8%. The AC50 under setting [1] is 13 µM [rising, partial curve, poor fit].
As for `Nc1c(NCc2ccccc2)c(=O)[nH]c(=O)n1Cc1ccccc1`, the cell number change is 24.1%. For the same compound, the AC50 under setting [1] is 0.92 µM [rising, partial curve, poor fit]. Also, under setting [2], the AC50 was 6.51 µM [rising, single point].
For `O=C(Oc1ccccc1F)C1CCN(C(=O)c2ccc(F)cc2)CC1`, the cell number change was -11.1%. For the same compound, the concentration at half-maximal activity (AC50) under setting [2] is 18.4 µM [rising, single point].
For `O=C(C[n+]1ccc(/C=N/O)cc1)NCc1ccccc1`, the cell number change is -41.1%. Moreover, the AC50 under setting [1] was 32.6 µM [falling, single point].
As for `COc1ccc(-c2nc(CCNC(=O)c3ccco3)cs2)cc1OC`, the cell number change is 0.711%.
Consider `CC(=O)Nc1ccc(NC(=O)CSc2nc(=O)n(Cc3ccncc3)c3c2CCC3)cc1`, for which the cell number change was -3.21%.
As for `Cc1ccc[n+](CC(=O)Nc2cc(C(F)(F)F)ccc2N2CCOCC2)c1`, the cell number change was -29.2%.
For the compound `CCOC(=O)C(NC(=O)Nc1ccc(Cl)cn1)(Oc1ccc(F)cc1)C(F)(F)F` (stereo not drawn), the cell number change is 18%. In addition, the AC50 under setting [2] was 25.9 µM [falling, single point].
With `COc1ccc(NC(=O)C2CCN(S(=O)(=O)c3cccc4cccnc34)CC2)cc1`, the cell number change was determined as 32.1%. In addition, the AC50 under setting [1] is 29.1 µM [rising, single point].
`Cc1cccc2[nH]c(SCC(=O)O)nc12`: the cell number change was -33.8%. Moreover, under setting [1], the AC50 was 0.116 µM [falling, full curve]. For the same compound, the AC50 under setting [2] was 0.103 µM [falling, full curve, poor fit].
Turning to `COc1ccc(CC(=O)NCc2nnc(SCC(=O)Nc3nccs3)n2-c2ccccc2)cc1`, the half-maximal activity concentration (AC50) under setting [2] is 2.31 µM [falling, single point].
For `CC(C)(C)Sc1nc(O)cc(=O)[nH]1`, the cell number change is -32.9%. Under setting [1], the AC50 was 4.61 µM [falling, full curve, poor fit]. Also, under setting [2], the AC50 was 5.8 µM [falling, full curve].
Turning to `COCCn1ccc2c(OCC(=O)Nc3cc(OC)ccc3OC)cccc2c1=O`, the half-maximal activity concentration (AC50) under setting [1] was 0.13 µM [rising, full curve, poor fit].
With `CC(C)CCNC(=O)NC(=O)CSc1ccc(S(=O)(=O)N2CCOCC2)cn1`, the cell number change is -15.4%. In addition, under setting [2], the AC50 was 6.51 µM [falling, single point].
`CCN(Cc1ccccc1)C(=O)COC(=O)CNC(=O)c1ccc(C)s1`: the AC50 was 5.8 µM [rising, single point] under setting [1] and 1.64 µM [rising, single point] under setting [2].
Consider `O=C(c1cc2nc(-c3ccco3)cc(C(F)(F)F)n2n1)N1CCCCCC1`, for which the cell number change is -30.2%. Also, under setting [1], the AC50 is 0.291 µM [falling, full curve, poor fit].
With `CCOc1ccc(CNC(=O)C2CCC(=O)N2C2CCCC2)cc1OC` (stereo not drawn), the cell number change was -20.3%. In addition, under setting [2], the concentration at half-maximal activity (AC50) was 0.164 µM [falling, full curve, poor fit].
`O=C(NCc1ccccn1)c1cccs1`: the cell number change was -173%. Moreover, the AC50 under setting [1] was 29.1 µM [falling, single point].
With `O=C(O)C1C2C=CC3(O2)C1C(=O)N1c2ccccc2COC13` (stereo not drawn), the cell number change was -2.55%.
Regarding `CN(CC(=O)NCc1ccc(F)cc1)Cc1ccc(Br)cc1`, under setting [2], the AC50 was 29.1 µM [rising, single point].
For the compound `O=C(CCc1ccccc1)NNC(=S)NCCc1ccccc1`, the cell number change is 10.5%.
As to `O=C(O)COCC(=O)NCc1csc2ccc(Cl)cc12`, the cell number change was found to be 18.9%. In addition, the AC50 under setting [2] is 4.11 µM [rising, full curve].
Take `O=Cc1c(N2CCN(c3cccc(Cl)c3)CC2)nc2ccccn2c1=O`: the AC50 under setting [2] is 3.66 µM [rising, single point].
As for `C=CCN1C(=O)NC(c2ccc(OC)cc2)(C(F)(F)F)S/C1=C(\C#N)c1nnc(N2CCOCC2)n1-c1ccccc1` (stereo not drawn), the cell number change stood at 7.65%. For the same compound, under setting [2], the AC50 was 25.9 µM [falling, single point].
`CCCSc1cc(=O)n(-c2ccc(F)cc2)nc1C(=O)OCC`: the cell number change amounted to 11.2%. In addition, under setting [1], the AC50 was 1.46 µM [falling, full curve]. The AC50 under setting [2] was 1.3 µM [falling, full curve].
Consider `O=C(NC(=S)Nc1ccccc1C(=O)O)c1cncc(Br)c1`, for which the cell number change was 28.7%. Also, under setting [2], the AC50 is 0.58 µM [falling, single point].
As for `COc1ccc(C(=O)/C=C/Nc2ccc(S(=O)(=O)Nc3cccc(C(C)=O)c3)cc2)cc1`, the cell number change was -39%. Also, the AC50 under setting [1] was 20.6 µM [falling, single point].
On to `O=C(CN1CCN(c2ccccc2)CC1)Nc1ccccc1C(F)(F)F`, for which the cell number change was 17.2%. In addition, under setting [2], the AC50 was 3.66 µM [rising, full curve].
Take `CCCOc1ccc(/C(O)=C2/C(=O)C(=O)N(CCCN3CCOCC3)C2c2ccncc2)cc1` (stereo not drawn): the cell number change amounted to 37.1%. For the same compound, under setting [1], the AC50 was 32.6 µM [rising, single point]. Moreover, the concentration at half-maximal activity (AC50) under setting [2] was 1.16 µM [rising, partial curve].
Consider `CC(C#N)N1CCN(S(=O)(=O)c2ccc3c(c2)CCC3)CC1` (stereo not drawn), for which the cell number change was -3.95%.
Same read-out and setting: for `CCC(=O)N1CCc2cc(Br)cc(S(=O)(=O)NCCCN(CC)Cc3ccccc3)c21` the value was 3.6%.
As for `COc1ccc(-c2cc([C@H]3[C@@H]4C=CCC[C@@]4(C)C(=O)N3Cc3ccccc3)ccc2F)cc1OC`, the cell number change was 7.77%. The AC50 under setting [2] was 2.91 µM [rising, single point].
As for `CC(C)Nc1nnc(SC(C)C(=O)NCc2ccc3c(c2)OCO3)s1` (stereo not drawn), the cell number change came to 31%. In addition, the AC50 under setting [1] was 0.184 µM [rising, full curve].
As to `NNC(=O)Cn1c(-c2ccccn2)nc2ccccc21`, the cell number change is -3.55%.
With `CC(=O)Nc1cccc(NC(=O)CSc2nnnn2C)c1`, the cell number change was -7.42%. Besides, the AC50 under setting [2] was 0.731 µM [falling, full curve].
`COc1cccc(NC(=O)CC2SC(=Nc3ccccc3)NC2=O)c1` (stereo not drawn): the cell number change was -34.7%. Under setting [1], the AC50 is 29.1 µM [falling, single point].
For the compound `CCN(C(=O)CSc1nnnn1C)c1c(N)n(Cc2ccccc2)c(=O)[nH]c1=O`, the AC50 under setting [2] is 0.116 µM [rising, single point].
